Laboratory results reported in the RNAGym collection of RNA variant scans (doi:10.1126/science.aae0568).
This sample is rich in variants without activity.

B1: tRNA (parent)
chain: GUUCCGUUGGCGUAAUGGUAACGCGUCUCCCUCCUAAGGAGAAGACUGCGGGUUCGAGUCCCGUACGGAACG

Variants of: B1
Assay: yeast fitness relative to wild type (ratio to wild type); higher = fitter; tRNA-Arg(CCU), competitive growth, 37 C, YPD
Method in brief: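 The tRNA-Arg(CCU) gene variants were made by chemical synthesis with a 3% per-site mutation rate at 69 sites and inserted at the native genomic locus of Saccharomyces cerevisiae. After pooling, the strains were competed in YPD at 37°C for 24 hours in six parallel replicates. Gene amplicons from the start population and each end population were read by 100-nucleotide paired-end sequencing, and Darwinian fitness relative to wild type was taken from genotype frequency changes. Genotypes needed ≥ 100 starting reads, and estimates < 0.5 were set to 0.5.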

Yeast fitness, 0.583:
G17C U53A

Yeast fitness, 0.969:
U19C C24U

Yeast fitness, 0.892:
U19G A69U

Yeast fitness, 0.637:
G18A G44A

Yeast fitness, 0.732:
U19G A40C

Yeast fitness, 0.529:
G18A C30G G38C

Yeast fitness, 0.553:
G17A C29U G67A

Yeast fitness, 0.612:
G17C C22G C30U G41C

Yeast fitness, 0.536:
U19G C55G C66U

Yeast fitness, 0.546:
G18C C29U

Yeast fitness, ≤ 0.5:
G17A C24G C27G A42U A65U
G17A C29U A37G A65G
G17A C34A A57U
G17A C46U G51A G56A
G17A C62A C66A
G17A U19A C30G A37U A40G
G17A U54C U59C C61G
G17C A20C C22G A42C G68C
G17C A40G G41A G56C
G17C A42C U54A G67C A69U
G17C C24G C31U
G17C C24G C46A G68C
G17C C27G A65U
G17C C27U A43G
G17C C27U U35C A65C
G17C C31G A45C U54C
G17C C33U C34A A43C
G17C C34G A37C C62A A69G
G17C C34G A37C C62A G67A
G17C C46G G68A
G17C C46U G50C C66G
G17C U35A G39A
G18A C22G C27G C49U
G18A C24A G58A
G18A C27U C31A C49U
G18A C27U C31A G44A
G18A C46U G56A A70G
G18A U26G G39C A69C
G18A U26G G50C
G18A U28A A42G A45C A65G
G18A U59C A69G
G18C A37C C49G A70G
G18C A45U G52C
G18C C22G C33G
G18C C27U A45C A69G
G18C C29U C55G G67U
G18C C33G A36C C46A
G18C C33U A69U
G18C U32A C46U
U19A A36G A42C C61G A65C
U19A A37U C55A
U19A C22A A37U G38C U53A
U19A C22G C61A
U19A C22U U32C G67U
U19A C24U G25C A70C
U19A C27G C55U
U19A C29A U32A
U19A C30A A43U G58C A65U
U19A C46U C55G
U19A C46U C62A
U19A G38C C62G G68C
U19A G41A A42G G58U G63C
U19A U32C G67U A69C
U19C A20C C31G C49A U64G A69C
U19C A43U C62G
U19C C29A A43C G58C
U19C C29G U54A A65C
U19C C30G A37G A43U
U19C C34U G38C U47C
U19C C34U G44A
U19C C60G A69U
U19C G51A A57G G58A
U19G A40G C55G A65C
U19G C29U G39C A42U G67A A69C
U19G G52C C61U
A20C A36C U47C
A20C C22U C34U U35G A65C
A20C C24A G56A C62U C66U A70C
A20C C27G C49A C61U
A20C C29U C49G U59C C62G

Yeast fitness, 0.509:
U19A C22G A70U

Yeast fitness, 0.784:
U19A C46U G48A U53C

Yeast fitness, 0.616:
G17C A70G
